The entries are a selection whose mix differs from that of the whole data set. At the low end of the ranking the order means little.

In this assay the target is T1, SPIC (UniProt Q8N5J4).
T1 sequence: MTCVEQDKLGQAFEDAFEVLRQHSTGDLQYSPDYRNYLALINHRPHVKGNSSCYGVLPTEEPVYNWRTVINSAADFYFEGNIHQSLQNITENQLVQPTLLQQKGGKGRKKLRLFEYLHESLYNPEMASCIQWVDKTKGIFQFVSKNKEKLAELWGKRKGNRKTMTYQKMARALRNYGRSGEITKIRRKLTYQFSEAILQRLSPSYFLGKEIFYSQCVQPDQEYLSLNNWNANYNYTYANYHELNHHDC
Kind of assay: DAPPL (digital affinity profiling via proximity ligation, sequencing). To be noted: 10 mM Tris-HCl pH 7.5, 50 mM NaCl, 1 mM DTT, 4% glycerol, room temperature, 30 min; GST-TFs on glutathione beads, 16-mer random dsDNA library, 0.1% …; high values mean tight binding; double strand, one strand shown; scale: fold enrichment (6-mer frequency, TF over GST control).
As to TTTATT, the binding signal amounted to 1.25.

Consider GCCCCT, for which the binding signal stood at 1.22. The value for TAAACA was 1.29. The sequence CTGAAT came in with a binding signal of 1.29. Sequence CGACTA had a binding signal of 1.47. Then TACGTA, with 1.27; and TCCTTG, with 1.23; and CTGCAA, with 1.2.

ACATTA yielded a binding signal of 1.23. As to CTTTCT, the binding signal was determined as 1.67. Then CCCAAT, with 1.27; and TCGACA, with 1.28; and CTCGAT, with 1.46. Take ATCGAT: the binding signal was found to be 1.2. The value for TTTAGG was 0.995; that for TATTAT was 1.35. Turning to CCTAAA, the binding signal came to 1.32. Consider GACCTC, for which the binding signal is 1.18.

ATAGCA displayed a binding signal of 0.908.

As for ACAAGC, the binding signal is 0.972.

The sequence ATACTA returned a binding signal of 1.1. The value for TCTTCT was 1.31; that for TTACTC was 1.24.

TCTAGT returned a binding signal of 1.18. GTTTAC had a binding signal of 0.977. Then TGTTAT, with 1.45. Regarding TTATTG, the binding signal turned out to be 1.29.

In turn, TCACGA returned a binding signal of 1.1. The value for CACGCT was 1.23. Sequence CTAACG came in with a binding signal of 1.04.

GCCCTT displayed a binding signal of 1.1. In turn, TCTTAA registered a binding signal of 1.2. In turn, TTGAAC returned a binding signal of 1.06. GCCTCG displayed a binding signal of 1.07.

Regarding CCATTG, the binding signal came to 0.971. With TGTCTC, the binding signal was determined as 1.11. Then CCGTAA, with 1.03; and ACTGCT, with 1.56; and GTTCTA, with 1.37.
